Data reported in the supplement of paper PMC9744312.
Counter-ions that a name gives are not always drawn. Some of the results follow. Single values of this set are uncertain.

Tested on: Peyronie's disease tunica albuginea primary fibroblasts
Experiment: cell viability (DRAQ5 nuclear stain) relative to TGF-beta1-only control; higher = more viable cells
Conditions: 10 µM; TGF-beta1 10 ng/mL; 72 h

| Compound | cell viability |
| --- | --- |
| CC(C)Oc1ccc2c(=O)c(-c3ccccc3)coc2c1 [Ipriflavone (Osteofix)] | 93.4% |
| Cc1cc(Nc2cc(N3CCN(C)CC3)nc(Sc3ccc(NC(=O)C4CC4)cc3)n2)n[nH]1 [Tozasertib (VX-680, MK-0457)] | 78.9% |
| Clc1ccc2nsnc2c1NC1=NCCN1 [Tizanidine] | 109% |
| Clc1ccc2nsnc2c1NC1=NCCN1 [Tizanidine HCl] | 95.7% |
| O=C1O[C@H]([C@@H](O)CO)C([O-])=C1O.[Na+] [Sodium ascorbate] | 98.1% |
| CCCCOc1cc(C(=O)OCCN(CC)CC)ccc1N [Oxybuprocaine HCl] | 86.3% |
| N#C/C(=C1/SC[C@@H](c2ccc(Cl)cc2Cl)S1)n1ccnc1 [Luliconazole] | 86.7% |
| NC(=O)C1CCCc2c1[nH]c1ccc(Cl)cc21 (centres undefined) [Selisistat (EX 527)] | 40.6% |
| COC(=O)[C@H](Cc1ccccc1)NC(=O)[C@@H](N)CC(=O)O [Aspartame] | 90.6% |
| C[C@]12CC[C@@H]3c4ccc(O)cc4C[C@@H](CCCCCCCCC[S+]([O-])CCCC(F)(F)C(F)(F)F)[C@H]3[C@@H]1CC[C@@H]2O (some centres undefined) [Fulvestrant] | 85.3% |
| CNC(=O)[C@@H](NC(=O)[C@H](CC(C)C)[C@H](O)C(=O)NO)C(C)(C)C [Marimastat (BB-2516)] | 87.9% |
| CO/N=C(\C(=O)N[C@@H]1C(=O)N2C(C(=O)O)=C(COC(C)=O)CS[C@H]12)c1csc(N)n1 [Cefotaxime sodium] | 96.7% |
| CC[C@H](NC(=O)[C@H](C)NC)C(=O)N1C[C@@H](O)C[C@H]1Cc1c(-c2[nH]c3cc(F)ccc3c2C[C@@H]2C[C@H](O)CN2C(=O)[C@H](CC)NC(=O)[C@H](C)NC)[nH]c2cc(F)ccc12 [Birinapant] | 125% |
| CN1CCN2c3ncccc3Cc3ccccc3C2C1 (centres undefined) [Mirtazapine] | 97.3% |
| CC(C)[C@H](N)C(=O)OCCOCn1cnc2c(=O)nc(N)[nH]c21 [Valaciclovir HCl] | 98.2% |
| CC1(C)O[C@@H]2C[C@H]3[C@@H]4C[C@H](F)C5=CC(=O)C=C[C@]5(C)[C@@]4(F)[C@@H](O)C[C@]3(C)[C@]2(C(=O)CO)O1 [Fluocinolone Acetonide] | 83.2% |
| Cc1cc(C)nc(NS(=O)(=O)c2ccc(N)cc2)n1 [Sulfamethazine Sodium Salt] | 92% |
| Cc1cc(C)nc(NS(=O)(=O)c2ccc(N)cc2)n1 [Sulfamethazine] | 94.9% |
| CN(C(=O)CN(CCO)CC(=O)N(C)C(C)(C)Cc1ccccc1)C(C)(C)Cc1ccccc1 [Oxethazaine] | 87.4% |
| CC(C)(Oc1ccc(Cl)cc1)C(=O)OCCOC(=O)c1cccnc1 [Etofibrate] | 96.2% |
| COC(=O)N/N=C/c1c[n+]([O-])c2ccccc2[n+]1[O-] [Carbadox] | 112% |
| CC1=NN(c2ccc(C)c(C)c2)C(=O)/C1=N\Nc1cccc(-c2cccc(C(=O)O)c2)c1O [Eltrombopag Olamine] | 78.5% |
| CC1=NN(c2ccc(C)c(C)c2)C(=O)/C1=N\Nc1cccc(-c2cccc(C(=O)O)c2)c1O [Eltrombopag] | 86.7% |

Another view of part of the listing above:
CC(C)(Oc1ccc(Cl)cc1)C(=O)OCCOC(=O)c1cccnc1 [Etofibrate]
  cell viability: 96.2%
COC(=O)N/N=C/c1c[n+]([O-])c2ccccc2[n+]1[O-] [Carbadox]
  cell viability: 112%
CC1=NN(c2ccc(C)c(C)c2)C(=O)/C1=N\Nc1cccc(-c2cccc(C(=O)O)c2)c1O [Eltrombopag Olamine]
  cell viability: 78.5%
CC1=NN(c2ccc(C)c(C)c2)C(=O)/C1=N\Nc1cccc(-c2cccc(C(=O)O)c2)c1O [Eltrombopag]
  cell viability: 86.7%

Continued:

| Compound | cell viability |
| --- | --- |
| CCn1c(=O)c2c(nc(/C=C/c3ccc(OC)c(OC)c3)n2C)n(CC)c1=O [Istradefylline] | 104% |
| CC(C(O)c1ccc(O)cc1)N1CCC(Cc2ccccc2)CC1 (centres undefined) [Ifenprodil Tartrate] | 91% |
| C[C@@H]1C/C=C/C=C/C=C/C=C/[C@H](O[C@@H]2O[C@H](C)[C@@H](O)[C@H](N)[C@@H]2O)C[C@@H]2O[C@](O)(C[C@@H](O)C[C@H]3O[C@@H]3/C=C/C(=O)O1)C[C@H](O)[C@H]2C(=O)O [Natamycin] | 93.6% |
| Nc1nc(=O)n([C@@H]2CS[C@H](CO)O2)cc1F [Emtricitabine] | 92.9% |
| COc1ccc(Cl)cc1C(=O)NCCc1ccc(S(=O)(=O)NC(=O)NC2CCCCC2)cc1 [Glyburide (Glibenclamide)] | 101% |
| COC(=O)N[C@@H](C)CNc1nccc(-c2cn(C(C)C)nc2-c2cc(Cl)cc(NS(C)(=O)=O)c2F)n1 [Encorafenib (LGX818)] | 67.8% |
| CC[C@@H]1C(=O)N(C)c2cnc(Nc3ccc(C(=O)N[C@H]4CC[C@H](N5CCN(CC6CC6)CC5)CC4)cc3OC)nc2N1C(C)C [Volasertib (BI 6727)] | 50.9% |
| CC#C[C@]1(O)CC[C@H]2[C@@H]3CCC4=CC(=O)CCC4=C3[C@@H](c3ccc(N(C)C)cc3)C[C@@]21C [Mifepristone] | 87% |
| [Cl][Mn][Cl] [Manganese chloride] | 89.2% |
| Cc1nc(C(=O)NCC(=O)O)c(O)c2ccc(Oc3ccccc3)cc12 [Roxadustat (FG-4592)] | 87% |
| CCCCCCNC(=O)n1cc(F)c(=O)[nH]c1=O [Carmofur] | 64.3% |
| CCC[C@@H]1C[C@@H](C(=O)N[C@@H]([C@H]2O[C@H](SC)[C@H](OP(=O)(O)O)[C@@H](O)[C@H]2O)[C@H](C)Cl)N(C)C1 [Clindamycin Phosphate] | 92.2% |
| N[C@H]1CONC1=O [L-Cycloserine] | 93.7% |
| CNC(=O)c1ccc(N2C(=S)N(c3ccc(C#N)c(C(F)(F)F)c3)C(=O)C2(C)C)cc1F [Enzalutamide (MDV3100)] | 57.6% |
| COc1cc2nc(N3CCN(C(=O)C4COc5ccccc5O4)CC3)nc(N)c2cc1OC (centres undefined) [Doxazosin Mesylate] | 86.5% |
| CCN(CCCCOC(=O)c1ccc(OC)c(OC)c1)C(C)Cc1ccc(OC)cc1 (centres undefined) [Mebeverine Hydrochloride] | 85.4% |
| CCN(CC)C(=O)C1(c2ccccc2)CC1CN (centres undefined) [Milnacipran HCl] | 95.1% |
| Cc1cc(C(C)(C)C)cc(C)c1CC1=NCCN1 [Xylometazoline HCl] | 83.2% |
| CCN(CC)CCOCCOC(=O)C1(c2ccccc2)CCCC1 [Pentoxyverine Citrate] | 93% |
| CC#CCn1c(N2CCC[C@@H](N)C2)nc2c1c(=O)n(Cc1nc(C)c3ccccc3n1)c(=O)n2C [Linagliptin] | 88.2% |
| NC[C@H]1O[C@H](O[C@H]2[C@H](O)[C@@H](O[C@H]3O[C@H](CO)[C@@H](O)[C@H](N)[C@H]3O)[C@H](N)C[C@@H]2N)[C@H](N)C[C@@H]1O [Tobramycin] | 97.6% |
| NC[C@H]1O[C@H](O[C@H]2[C@H](O)[C@@H](O[C@H]3O[C@H](CO)[C@@H](O)[C@H](N)[C@H]3O)[C@H](N)C[C@@H]2N)[C@H](N)C[C@@H]1O [Tobramycin sulfate] | 82.3% |
| O=C(/C=C/c1cccc(S(=O)(=O)Nc2ccccc2)c1)NO [Belinostat (PXD101)] | 31.3% |

| Compound | cell viability |
| --- | --- |
| CC(C)(C)c1cc(NC(=O)Nc2ccc(-c3cn4c(n3)sc3cc(OCCN5CCOCC5)ccc34)cc2)no1 [Quizartinib (AC220)] | 64.7% |
| CCOC(=O)/C=C(C)/C=C/C=C(C)/C=C/c1c(C)cc(OC)c(C)c1C [Etretinate] | 73.1% |
| CN(C)C(=N)NC(=N)N [Metformin HCl] | 103% |
| NCCCCCC(=O)O [(6-)ε-?Aminocaproic acid] | 94.3% |
| CNCCc1ccccn1 [Betahistine] | 86.3% |
| CNCCc1ccccn1 [Betahistine 2HCl] | 92.1% |
| CNCCc1ccccn1 [Betahistine mesylate] | 89.1% |
| Nc1nc2c(ncn2COC(CO)CO)c(=O)[nH]1 [Ganciclovir] | 89.4% |
| Clc1cccc(Cl)c1NC1=NCCN1 [Clonidine HCl] | 95.3% |
| C[C@]12C=CC(=O)N[C@@H]1CC[C@@H]1[C@@H]2CC[C@]2(C)[C@@H](C(=O)Nc3cc(C(F)(F)F)ccc3C(F)(F)F)CC[C@@H]12 [Dutasteride] | 75% |
| CO[C@H]1/C=C/O[C@@]2(C)Oc3c(C)c(O)c4c(O)c(c5c(nc6cc(C)ccn65)c4c3C2=O)NC(=O)/C(C)=C\C=C\[C@H](C)[C@H](O)[C@@H](C)[C@@H](O)[C@@H](C)[C@H](OC(C)=O)[C@@H]1C [Rifaximin] | 90.3% |
| CCCCCOc1ccccc1/C(=C\SC)n1ccnc1 [Neticonazole Hydrochloride] | 78.2% |
| Cc1cnc(Nc2ccc(OCCN3CCCC3)cc2)nc1Nc1cccc(S(=O)(=O)NC(C)(C)C)c1 | 28.4% |
| Cc1cc(O)c(C(=O)N[C@@H](C(=O)N[C@@H]2C(=O)N3C(C(=O)O)=C(CSc4nnnn4C)CS[C@H]23)c2ccc(O)cc2)cn1 [Cefpiramide sodium] | 98.8% |
| CCCNC(=O)NS(=O)(=O)c1ccc(Cl)cc1 [Chlorpropamide] | 97% |
| COc1ccc(Cl)c(Nc2nc3ccccc3nc2NS(=O)(=O)c2cccc(NC(=O)C(C)(C)N)c2)c1 [Pilaralisib (XL147)] | 74.1% |
| CC(=O)O[C@]1(C(C)=O)CC[C@H]2[C@@H]3C=C(Cl)C4=CC(=O)CC[C@]4(C)[C@H]3CC[C@@]21C [Chlormadinone acetate] | 101% |
| CCS(=O)(=O)N1CC(CC#N)(n2cc(-c3ncnc4[nH]ccc34)cn2)C1 | 83.6% |
| Clc1ccc2c(c1)CCc1cccnc1C2=C1CCNCC1 [Desloratadine] | 86.9% |
| O=C1NCC2(CCN(CCc3ccccc3)CC2)O1 [Fenspiride HCl] | 84.9% |
| CC1(C)OC[C@@H](COC(=O)CCc2ccc(OC[C@@H](O)CNCCNC(=O)N3CCOCC3)cc2)O1 [Landiolol hydrochloride] | 96.6% |
| Cc1[nH]cnc1CN1CCc2c(c3ccccc3n2C)C1=O [Alosetron Hydrochloride] | 99.4% |
| O=C(c1ccc(F)cc1)C1CCN(CCn2c(=O)[nH]c3ccccc3c2=O)CC1 [Ketanserin] | 96.9% |
